Laboratory results as given in US5223526A, “Pyrazole carboxanilide fungicides and use” (Monsanto Company, priority 1992, dated 1993).
Some entries share one result that the patent states for a list of compounds.

System: Botrytis
Assay: Field tests, vineyards
Assay type: in vivo
Conditions: 0.01 to 2.0 kg active ingredient per hectare

Row | Structure (SMILES) | incidence of Botrytis compared to untreated fields
1 | Cc1ccc(C2CCCCC2)c(NC(=O)c2cn(C)nc2C(F)(F)F)c1 [Example 18, 1H-pyrazole-4-carboxamide, N-(2-cyclohexyl-5-methylphenyl)-1-methyl-3-(trifluoromethyl)-] | reduce the incidence of Botrytis compared to untreated fields
2 | Cn1cc(C(=O)Nc2ccccc2C2CCCCCCC2)c(C(F)F)n1 [Example 24, 1H-pyrazole-4-carboxamide, N-(2-cyclooctylphenyl)-3-(difluoromethyl)-1-methyl-] | reduce the incidence of Botrytis compared to untreated fields
3 | Cc1nn(C)c(C)c1C(=O)Nc1ccccc1C1CCCCCC1 [Example 66, 1H-pyrazole-4-carboxamide, N-(2-cycloheptylphenyl)-1,3,5-trimethyl-] | reduce the incidence of Botrytis compared to untreated fields
4 | Cn1cc(C(=O)Nc2ccccc2C2CCCCC2)c(Cl)n1 [Example 50, 1H-pyrazole-4-carboxamide, 3-chloro-N-(2-cyclohexylphenyl)-1-methyl-] | reduce the incidence of Botrytis compared to untreated fields
5 | Cn1cc(C(=O)Nc2ccccc2[C@@H]2C[C@H]3CC[C@@H]2C3)c(Br)n1 (relative stereo) [Example 65, 1H-pyrazole-4-carboxamide, N-(2-bicyclo[2.2.1]hept-2-ylphenyl)-3-bromo-1-methyl-, exo-] | reduce the incidence of Botrytis compared to untreated fields
6 | CSc1nn(C)cc1C(=O)Nc1ccccc1C1CCCCC1 [Example 39, 1H-pyrazole-4-carboxamide, N-(2-cyclohexylphenyl)-1-methyl-3-(methylthio)-] | reduce the incidence of Botrytis compared to untreated fields
7 | Cn1cc(C(=O)Nc2ccccc2OCC2CCCC2)c(C(F)F)n1 [Example 46, 1H-pyrazole-4-carboxamide, N-[2-(cyclopentylmethoxy)phenyl]-3-(difluoromethyl)-1-methyl-] | reduce the incidence of Botrytis compared to untreated fields
8 | Cn1cc(C(=O)Nc2ccccc2C2CCCCCCC2)c(C(F)(F)F)n1 [Example 25, 1H-pyrazole-4-carboxamide, N-(2-cyclooctylphenyl)-1-methyl-3-(trifluoromethyl)-] | reduce the incidence of Botrytis compared to untreated fields
9 | Cn1cc(C(=O)Nc2ccccc2C=C2CCCC2)c(C(F)(F)F)n1 [Example 127, 1H-pyrazole-4-carboxamide, N-[2-(cyclopentylidenemethyl)phenyl]-1-methyl-3-(trifluoromethyl)-] | reduce the incidence of Botrytis compared to untreated fields
10 | Cn1cc(C(=O)Nc2ccccc2C2CCCC2)c(Br)n1 [Example 64, 1H-pyrazole-4-carboxamide, 3-bromo-N-(2-cyclopentylphenyl)-1-methyl-] | reduce the incidence of Botrytis compared to untreated fields
11 | Cn1cc(C(=O)Nc2ccccc2OC2(C)CCCC2)c(C(F)F)n1 [Example 35, 1H-pyrazole-4-carboxamide, 3-(difluoromethyl)-1-methyl-N-[2-(1-methylcyclopentyloxy)phenyl]-] | reduce the incidence of Botrytis compared to untreated fields
12 | Cn1cc(C(=O)Nc2ccccc2OC2CCCCC2)c(C(F)F)n1 [Example 22, 1H-pyrazole-4-carboxamide, N-[2-(cyclohexyloxy)phenyl]-3-(difluoromethyl)-1-methyl-] | reduce the incidence of Botrytis compared to untreated fields
13 | C[C@@H]1CCC[C@@H](C)C1Oc1ccccc1NC(=O)c1cn(C)nc1C(F)(F)F (relative stereo) [Example 75, 1H-pyrazole-4-carboxamide, 1-methyl-N-[2-[(2,6-dimethylcyclohexyl)oxy]phenyl]-3-(trifluoromethyl)-, (1alpha,2alpha,6beta)-] | reduce the incidence of Botrytis compared to untreated fields
14 | Cn1cc(C(=O)Nc2ccccc2C2CCCCCCC2)c(I)n1 [Example 68, 1H-pyrazole-4-carboxamide, N-(2-cyclooctylphenyl)-3-iodo-1-methy1-] | reduce the incidence of Botrytis compared to untreated fields
15 | Cc1nn(C)cc1C(=O)Nc1ccccc1C1CCCCCC1 [Example 13, 1H-pyrazole-4-carboxamide, N-(2-cycloheptylphenyl)-1,3-dimethyl-] | reduce the incidence of Botrytis compared to untreated fields
16 | Cc1c(C(=O)Nc2ccccc2C2CCCCCC2)c(C(F)(F)F)nn1C [Example 99, 1H-pyrazole-4-carboxamide, N-(2-cycloheptylphenyl)-1,5-dimethyl-3-(trifluoromethyl)-] | reduce the incidence of Botrytis compared to untreated fields
17 | Cn1cc(C(=O)Nc2ccccc2OCC2CCC2)c(C(F)F)n1 [Example 42, 1H-pyrazole-4-carboxamide, N-[2-(cyclobutylmethoxy)phenyl]-3-(difluoromethyl)-1-methyl-] | reduce the incidence of Botrytis compared to untreated fields

Row | Structure (SMILES) | incidence of Botrytis compared to untreated fields
18 | COc1ccc(C2CCCCCCC2)c(NC(=O)c2cn(C)nc2C(F)(F)F)c1 [Example 38, 1H-pyrazole-4-carboxamide, N-(2-cyclooctyl-5-methoxyphenyl)-1-methyl-3-(trifluoromethyl)-] | reduce the incidence of Botrytis compared to untreated fields
19 | Cn1cc(C(=O)Nc2ccccc2CC2CCCCC2)c(C(F)F)n1 [Example 129, 1H-pyrazole-4-carboxamide, N-[2-(cyclohexylmethyl)phenyl]-3-(difluoromethyl)-1-methyl-] | reduce the incidence of Botrytis compared to untreated fields
20 | Cn1cc(C(=O)Nc2ccccc2[C@@H]2C[C@H]3CC[C@@H]2C3)c(C(F)F)n1 (relative stereo) [Example 26, 1H-pyrazole-4-carboxamide, N-(2-bicyclo[2.2.1]hept-2-ylphenyl)-3-(difluoromethyl)-1-methyl-, exo-] | reduce the incidence of Botrytis compared to untreated fields
21 | Cn1cc(C(=O)Nc2ccccc2CC2CCCC2)c(C(F)(F)F)n1 [Example 142, 1H-pyrazole-4-carboxamide, N-[2-(cyclopentylmethyl)phenyl]-1-methyl-3-(trifluoromethyl)-] | reduce the incidence of Botrytis compared to untreated fields
22 | Cc1ccc(C2CCCCC2)c(NC(=O)c2cn(C)nc2C(F)F)c1 [Example 21, 1H-pyrazole-4-carboxamide, N-(2-cyclohexyl-5-methylphenyl)-3-(difluoromethyl)-1-methyl-] | reduce the incidence of Botrytis compared to untreated fields
23 | Cn1cc(C(=O)Nc2ccccc2C2CCCC2)c(C(F)(F)F)n1 [Example 8, 1H-pyrazole-4-carboxamide, N-(2-cyclopentylphenyl)-1-methyl-3-(trifluoromethyl)-] | reduce the incidence of Botrytis compared to untreated fields
24 | Cn1cc(C(=O)Nc2ccccc2C2=CCC(C(C)(C)C)CC2)c(C(F)F)n1 (stereo not drawn) [Example 132, 1H-pyrazole-4-carboxamide, 3-(difluoromethyl)-N-[2-[4-(1,1-dimethylethyl)-1-cyclohexen-1-yl]phenyl]-1-methyl-] | reduce the incidence of Botrytis compared to untreated fields
25 | Cc1ccc(OC2CCCCC2)c(NC(=O)c2cn(C)nc2C(F)(F)F)c1 [Example 97, 1H-pyrazole-4-carboxamide, N-[2-(cyclohexyloxy)-5-methylphenyl]-1-methyl-3-(trifluoromethyl)-] | reduce the incidence of Botrytis compared to untreated fields
26 | Cn1nc(C(F)(F)F)c(C(=O)Nc2ccccc2C2CCCCCC2)c1Cl [Example 89, 1H-pyrazole-4-carboxamide, 5-chloro-N-(2-cycloheptylphenyl)-1-methyl-3-(trifluoromethyl)-] | reduce the incidence of Botrytis compared to untreated fields
27 | Cn1cc(C(=O)Nc2ccccc2C2=CCCCC2)c(C(F)F)n1 [Example 109, 1H-pyrazole-4-carboxamide, N-[2-(1-cyclohexen-1-yl)phenyl]-3-(difluoromethyl)-1-methyl-] | reduce the incidence of Botrytis compared to untreated fields
28 | Cn1nc(C(F)(F)F)c(C(=O)Nc2ccccc2C2CCCCC2)c1Cl [Example 87, 1H-pyrazole-4-carboxamide, 5-chloro-N-(2-cyclohexylphenyl)-1-methyl-3-(trifluoromethyl)-] | reduce the incidence of Botrytis compared to untreated fields
29 | Cn1cc(C(=O)Nc2ccccc2C2=CCSCC2)c(C(F)F)n1 [Example 144, 1H-pyrazole-4-carboxamide, 3-(difluoromethyl)-N-[2-(5,6-dihydro-2H-thiopyran-4-yl)phenyl]-1-methyl-] | reduce the incidence of Botrytis compared to untreated fields
30 | CC1=C(c2ccccc2NC(=O)c2cn(C)nc2C(F)(F)F)CCC1 [Example 137, 1H-pyrazole-4-carboxamide, 1-methyl-N-[2-(2-methyl-1-cyclopenten-1-yl)phenyl]-3-(trifluoromethyl)-] | reduce the incidence of Botrytis compared to untreated fields
31 | Cc1nn(C)c(C)c1C(=O)Nc1ccccc1C1CCCCC1 [Example 30, 1H-pyrazole-4-carboxamide, N-(2-cyclohexylphenyl)-1,3,5-trimethyl-] | reduce the incidence of Botrytis compared to untreated fields
32 | Cn1cc(C(=O)Nc2ccccc2C=C2CCCCC2)c(C(F)(F)F)n1 [Example 40, 1H-pyrazole-4-carboxamide, N-[2-(cyclohexylidenemethyl)phenyl]-1-methyl-3-(trifluoromethyl)-] | reduce the incidence of Botrytis compared to untreated fields
33 | Cn1cc(C(=O)Nc2ccccc2C2=CCCC2(C)C)c(C(F)F)n1 [Example 122, 1H-pyrazole-4-carboxamide, 3-(difluoromethyl)-N-[2-(5,5-dimethyl-1-cyclopenten-1-yl)phenyl]-1-methyl-] | reduce the incidence of Botrytis compared to untreated fields
